{"source": "patent US5482941A", "about": "“Quinazolinone antianginal agents” (Pfizer Inc., priority 1991, dated 1996)", "system": "calcium/calmodulin (Ca/CAM)-independent cGMP PDE", "experiment": "In vitro inhibition of Ca/CAM-independent cGMP PDE", "type": "biochemical, rabbit", "details": "between Ca/CAM-independent cGMP PDE and cGMP-inhibited cAMP PDE (IC50 cAMP / IC50 cGMP)", "protocol": "Phosphodiesterase activity\nCompound affinities for cGMP and cAMP PDEs are assessed by determination of their IC50 values (the concentration of inhibitor required for 50% inhibition of enzyme activity). The PDE enzymes are isolated from rabbit platelets and rat kidney, essentially by the method of W. J. Thompson et al. (Biochem., 1971, 10, 311). The calcium/calmodulin (Ca/CAM)-independentcGMP PDE and the cGMP-inhibited cAMP PDE enzymes are obtained from rabbit platelets whilst, of the four major PDE enzymes of the rat kidney, the Ca/CAM-dependent cGMP PDE (fraction I) is isolated. Assays are performed using a modification of the \"batch\" method of W. J. Thompson and M. M. Appleman (Biochem., 1979, 18, 5228).", "note": "At least one structure is not confirmed: it was looked up by name or label, or the drawing left a doubt."}
{"smiles": "CCCOc1ccc(C(C)=O)cc1-c1nc2c(C)cccc2c(=O)[nH]1", "note": "[Example 22, 2-(5-Acetyl-2-n-propoxyphenyl)-8-methylquinazolin-4(3H)-one]", "values": [{"measurement": "SELECTIVITY RATIO", "value": "> 2,040"}]}
